Data taken from PMC9579145.
These are yes or no findings as the source states them, for the method shown. Binding seen in cells or lysates may run through a third protein. Some results given as binding are weak or reduced against the parent protein; the word gives no strength. Tags and fused reporters may be left off the sequences shown.

Biological target: T1, FLAG (DYKDDDDK)-tagged Tmem65 (UniProt Q4VAE3)
T1 sequence: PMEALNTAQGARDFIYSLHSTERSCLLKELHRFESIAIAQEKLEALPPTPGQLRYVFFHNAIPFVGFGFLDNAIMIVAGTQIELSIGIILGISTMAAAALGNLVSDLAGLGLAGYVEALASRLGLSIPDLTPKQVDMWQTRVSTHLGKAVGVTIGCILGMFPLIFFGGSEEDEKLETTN
Experiment: co-IP; transfected HEK-293 cells; 500 µg soluble proteins with FLAG antibody overnight at 4 °C, protein A/G agarose; blot with HA antibody; same immunoprecipitation buffer

binding: binds
Substance: HA (…)-tagged β1 (from UniProt P97952 19-218)
